Source: patent US7361133B2, “Methods of detection utilizing modified bacteriophage” (The Johns Hopkins University, priority 1997, dated 2008)
No constants are given. Whether binding was seen depends on the method and setting. Some binding calls cover weakened binding; strength is not graded here.

Columns and labels:
[1] = biological target: functional NMDA receptor channel formed by NR1 and NR2A in HEK cells (UniProt P35439); assay: phage-immunostain of HEK cells expressing NR1 and NR2A, peptide against Mag-4.1 phage
[2] = biological target: functional NMDA receptor channel formed by NR1 and NR2A in HEK cells (UniProt P35439); assay: phage-immunostain of HEK cells transiently expressing NR1 and NR2A
[3] = biological target: functional NMDA receptor channel formed by NR1 and NR2A in HEK cells (UniProt P35439); assay: phage-immunostain of HEK cells cotransfected with NR1 and NR2A

| Binder | binding [1] | binding [2] | binding [3] |
| --- | --- | --- | --- |
| GGGLNDWFITYIGGG [synthetic HPLC-purified Mag-4.1 peptide (…)] | binds |  |  |
| LNDWFITYI (peptide, not shown: large carriers) [Mag-4.1 phage] |  | binds | binds |
